Assay results published in patent US20220152228A1, “COMPOSITIONS AND METHODS FOR RADIOTHERAPY USING CHELATED RADIOTHERAPEUTIC AGENTS AND NON-TARGET TISSUE BLOCKADE” (Washington University, priority 2019, published 2022).

Assay: Radiolabeling of chelator with 223Ra monitored by radioTLC
Format: physicochemical
Conditions: room temperature, pH 6; for radiolabeling efficiency (RL): 223Ra

SMILES	radiolabeling efficiency (RL)	macropa concentration at RL50% (after 5 min of reaction)	macropa concentration necessary to reach RL over 80% (after 5 min of reaction)
O=C(O)CN1CCN(CC(=O)O)CCN(CC(=O)O)CCN(CC(=O)O)CC1 [DOTA, 1,4,7,10-Tetraazacyclododecane-1,4,7,10-tetraacetic acid]	does not coordinate radium		
O=C([O-])c1cccc(CN2CCOCCOCCN(Cc3cccc(C(=O)[O-])n3)CCOCCOCC2)n1.[223Ra+2] [[(^223Ra)macropa]]	exceeded 95%		
O=C(O)c1cccc(CN2CCOCCOCCN(Cc3cccc(C(=O)O)n3)CCOCCOCC2)n1 [macropa]		13 µM	18 µM
